Measurements: article PMC3751641, “Mena/VASP and αII-Spectrin complexes regulate cytoplasmic actin networks in cardiomyocytes and protect from conduction abnormalities and dilated cardiomyopathy” (Cell Communication and Signaling : CCS, 2013)
No constants are given. Whether binding was seen depends on the method and setting. Binding seen in cells or lysates may run through a third protein. Binding calls can cover weak binding; strength is not graded here.

Chains of the proteins cited; added tags and fusions are not shown. Lines headed by an entry give the natural chain unless they say otherwise; changes in a name come on top.
UniProt Q03173: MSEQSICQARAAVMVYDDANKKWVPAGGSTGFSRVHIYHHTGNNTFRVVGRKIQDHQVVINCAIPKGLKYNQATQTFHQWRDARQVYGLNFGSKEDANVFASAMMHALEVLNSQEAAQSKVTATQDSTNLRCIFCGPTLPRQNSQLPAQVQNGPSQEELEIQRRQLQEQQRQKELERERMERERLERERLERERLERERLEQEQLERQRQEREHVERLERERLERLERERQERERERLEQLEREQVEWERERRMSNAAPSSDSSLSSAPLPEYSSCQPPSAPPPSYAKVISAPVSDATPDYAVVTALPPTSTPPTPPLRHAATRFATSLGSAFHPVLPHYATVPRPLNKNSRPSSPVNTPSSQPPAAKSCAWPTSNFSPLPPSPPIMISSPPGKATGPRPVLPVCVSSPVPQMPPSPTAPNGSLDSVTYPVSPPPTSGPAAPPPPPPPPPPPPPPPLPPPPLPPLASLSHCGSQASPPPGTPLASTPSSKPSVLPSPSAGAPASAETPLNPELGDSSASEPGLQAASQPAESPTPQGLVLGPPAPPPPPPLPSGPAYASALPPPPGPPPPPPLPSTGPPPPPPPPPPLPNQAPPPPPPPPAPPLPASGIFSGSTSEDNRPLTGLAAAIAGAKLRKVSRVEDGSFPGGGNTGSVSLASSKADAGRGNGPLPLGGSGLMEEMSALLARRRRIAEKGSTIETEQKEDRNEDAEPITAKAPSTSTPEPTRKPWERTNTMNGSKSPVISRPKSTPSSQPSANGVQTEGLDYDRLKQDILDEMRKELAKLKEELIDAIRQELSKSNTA
UniProt P23242: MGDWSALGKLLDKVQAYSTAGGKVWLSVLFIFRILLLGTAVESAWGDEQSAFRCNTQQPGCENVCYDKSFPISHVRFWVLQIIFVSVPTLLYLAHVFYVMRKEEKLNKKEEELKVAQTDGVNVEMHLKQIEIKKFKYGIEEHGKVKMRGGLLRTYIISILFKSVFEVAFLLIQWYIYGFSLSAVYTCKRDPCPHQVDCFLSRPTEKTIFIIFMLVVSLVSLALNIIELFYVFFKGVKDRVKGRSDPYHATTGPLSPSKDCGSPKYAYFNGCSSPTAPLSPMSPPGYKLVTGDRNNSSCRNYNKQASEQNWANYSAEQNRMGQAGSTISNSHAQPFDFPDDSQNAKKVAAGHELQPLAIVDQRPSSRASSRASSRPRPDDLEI

Molecular target: Mena (mammalian Enabled) (mouse (endogenous in mouse heart)) (UniProt Q03173)
Test: co-IP; adult mouse heart lysate incubated with 5 μg purified anti-Mena, anti-αII-Spectrin or anti-SH3i antibodies, then protein A-sepharose; washed in lysis buffer; Western blot; GST-specific antibodies as control

Substance: Connexin 43, endogenous in adult mouse heart (from UniProt P23242 1-382)
- binding: binds
